No constants are given. Whether binding was seen depends on the method and setting. In cells and extracts the contact can be indirect. A yes stands for co-enrichment or nearness to the bait. Other partners may have been found. For part of these data: Where a sequence is shown, tags or fusion partners need not be part of it.
T1: Sni445-FLAG (S. cerevisiae) (UniProt P53952)
T1 sequence: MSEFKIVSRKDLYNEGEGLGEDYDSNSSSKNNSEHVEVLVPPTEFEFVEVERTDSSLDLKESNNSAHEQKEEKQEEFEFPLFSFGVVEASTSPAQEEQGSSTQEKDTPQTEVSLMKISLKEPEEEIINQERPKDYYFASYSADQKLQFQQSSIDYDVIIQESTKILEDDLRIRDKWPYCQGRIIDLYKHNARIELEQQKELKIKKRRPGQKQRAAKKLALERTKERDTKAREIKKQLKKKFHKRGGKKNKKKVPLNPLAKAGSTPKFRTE

The chains behind the UniProt entries cited, without tags or fusion partners.
UniProt Q12499: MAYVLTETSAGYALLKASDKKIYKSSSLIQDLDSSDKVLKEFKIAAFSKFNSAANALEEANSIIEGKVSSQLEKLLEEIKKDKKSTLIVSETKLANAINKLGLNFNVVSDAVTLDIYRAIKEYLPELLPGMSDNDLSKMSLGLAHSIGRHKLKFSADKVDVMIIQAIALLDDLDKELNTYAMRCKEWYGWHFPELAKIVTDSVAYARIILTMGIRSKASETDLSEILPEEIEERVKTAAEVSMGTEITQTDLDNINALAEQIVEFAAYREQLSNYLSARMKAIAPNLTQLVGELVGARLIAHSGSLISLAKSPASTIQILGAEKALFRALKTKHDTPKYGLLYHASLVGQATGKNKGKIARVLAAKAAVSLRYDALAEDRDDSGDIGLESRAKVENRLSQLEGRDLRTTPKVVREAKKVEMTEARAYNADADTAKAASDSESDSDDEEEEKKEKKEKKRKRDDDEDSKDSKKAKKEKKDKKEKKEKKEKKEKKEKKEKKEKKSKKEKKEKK
UniProt P39990: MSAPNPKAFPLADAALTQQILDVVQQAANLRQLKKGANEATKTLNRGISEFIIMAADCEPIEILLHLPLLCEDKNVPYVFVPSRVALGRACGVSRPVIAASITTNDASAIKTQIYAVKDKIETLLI
UniProt P15646: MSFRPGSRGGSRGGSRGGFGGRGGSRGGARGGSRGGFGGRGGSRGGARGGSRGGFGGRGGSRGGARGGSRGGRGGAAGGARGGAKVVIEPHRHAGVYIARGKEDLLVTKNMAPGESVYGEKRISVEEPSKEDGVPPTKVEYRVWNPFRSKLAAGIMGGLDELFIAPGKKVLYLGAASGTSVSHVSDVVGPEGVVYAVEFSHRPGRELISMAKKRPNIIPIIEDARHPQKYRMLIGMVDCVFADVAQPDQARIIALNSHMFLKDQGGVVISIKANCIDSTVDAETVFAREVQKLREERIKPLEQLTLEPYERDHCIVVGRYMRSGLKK

T2: Sni445-TurboID (S. cerevisiae) (UniProt P53952)
T2 sequence: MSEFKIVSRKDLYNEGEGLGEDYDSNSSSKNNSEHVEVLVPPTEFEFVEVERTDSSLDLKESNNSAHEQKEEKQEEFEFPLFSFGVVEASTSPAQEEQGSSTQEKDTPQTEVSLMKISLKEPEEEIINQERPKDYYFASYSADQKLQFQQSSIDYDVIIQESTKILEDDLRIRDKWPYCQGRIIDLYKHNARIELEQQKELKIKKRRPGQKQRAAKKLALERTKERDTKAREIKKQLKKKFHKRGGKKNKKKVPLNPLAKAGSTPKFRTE

T3: Sni445-TAP (S. cerevisiae) (UniProt P53952)
T3 sequence: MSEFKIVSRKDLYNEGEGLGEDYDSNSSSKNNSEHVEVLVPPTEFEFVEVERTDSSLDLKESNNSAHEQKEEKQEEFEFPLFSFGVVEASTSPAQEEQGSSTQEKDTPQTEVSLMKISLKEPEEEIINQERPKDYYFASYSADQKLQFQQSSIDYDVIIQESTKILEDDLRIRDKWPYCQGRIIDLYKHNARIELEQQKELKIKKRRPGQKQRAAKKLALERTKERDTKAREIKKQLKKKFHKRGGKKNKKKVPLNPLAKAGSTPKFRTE


Assays:
[1] = biological target: T1, Sni445-FLAG (S. cerevisiae); assay: affinity purification with mass spectrometry; one-step FLAG purification of Sni445-FLAG from yeast lysate (Anti-FLAG M2 Affinity Gel, FLAG-peptide elution; 50 mM Tris-HCl pH 7.5, 100 mM NaCl, 1.5 mM MgCl2, 0.075% NP-40); label-free MS, three replicates
[2] = biological target: T2, Sni445-TurboID (S. cerevisiae); assay: proximity labelling; TurboID: Sni445-TurboID expressed from the CUP1 promoter in yeast; biotinylated proteins purified on streptavidin beads and identified by MS; enrichment against GFP-TurboID and NLS-GFP-TurboID controls
[3] = biological target: T3, Sni445-TAP (S. cerevisiae); assay: affinity purification with mass spectrometry; tandem affinity purification of chromosomally TAP-tagged baits from yeast lysate (IgG Sepharose, TEV elution, Calmodulin Sepharose, EGTA elution; 50 mM Tris-HCl pH 7.5, 100 mM NaCl, 1.5 mM MgCl2, 0.075% NP-40); label-free MS, three replicates; Pwp2-TAP and Enp1-TAP also from sni445 deletion strains
[4] = biological target: T3, Sni445-TAP (S. cerevisiae); assay: affinity purification with mass spectrometry; split-tag two-step purification: first Sni445-TAP on IgG Sepharose with TEV elution, then Nop58-FLAG on anti-FLAG M2 agarose with 3x Flag peptide elution; SDS-PAGE, Coomassie, bands identified by MS
[5] = biological target: T3, Sni445-TAP (S. cerevisiae); assay: affinity purification with mass spectrometry; tandem affinity purification of chromosomally TAP-tagged baits from yeast lysate (IgG Sepharose, TEV elution, Calmodulin Sepharose, EGTA elution; 50 mM Tris-HCl pH 7.5, 100 mM NaCl, 1.5 mM MgCl2, 0.075% NP-40); label-free MS, three replicates; Pwp2-TAP and Enp1-TAP also from sni445 deletion strains; remark: listed apart in the source
[6] = biological target: Nop58-FLAG (S. cerevisiae) (UniProt Q12499); assay: affinity purification with mass spectrometry; split-tag two-step purification: first Sni445-TAP on IgG Sepharose with TEV elution, then Nop58-FLAG on anti-FLAG M2 agarose with 3x Flag peptide elution; SDS-PAGE, Coomassie, bands identified by MS

binding [1] | binding [2] | binding [3] | binding [4] | binding [5] | binding [6] | Molecule
binds | binds | binds | – | – | – | Nop58 (from UniProt Q12499 1-511)
binds | – | binds | – | – | – | Snu13 (from UniProt P39990 1-126)
binds | binds | binds | binds | – | – | Nop1 (from UniProt P15646 1-327) (enzyme)
binds | – | – | – | binds | – | Nop12 (protein, UniProt Q08208 1-459) MSSAIDNLFGNIDEKKIESSVDKLFSSSCGPINKLEVKSKTRTVLPDSKKRERAAEADQEEKEASKPDVSDEQTEEVALPKVKKAKKSKRNDEDEDLEARYYAKLLNEEAEAEDDKPTVTKTDETSVPLTSAAKKVDFKEDELEKAERTVFIGNILSTVITSKKVYKEFKKLFGTNPIAETEESGNEKEEESSKKSDNNEFAIESIRFRSISFDEALPRKVAFVQQKFHKSRDTINAYIVYKNKSAVRKICSNLNAVVFQDHHLRVDSVAHPAPHDKKRSIFVGNLDFEEIEESLWKHFEPCGDIEYVRIIRDSKTNMGKGFAYVQFKDLQSVNKALLLNEKPMKSQKQEDENTKKPTKKARKLRVSRCKNMKKGTTIGTGLDRNGLTDSQRTRAGRAKKILGKADRATLGQEITIEGLRAKKGEGSTHLKKKKQRSATGRVTKRSIAFKKAQAEKSKK
– | binds | – | binds | – | binds | Rrp12 (protein, UniProt Q12754 1-1228) MDQDKVAFLLELEDKLAKIRSQVNSKLENQKHIAIILTAVEENIAGQATNDVSKNIVNYIISFMSLLDQAVDPSTHEIKDIQLASSSTYLLDLIFHYSPKVLLRSKFSEILTKIAPCITAEKANAPLIRAAIGCLESLLIAQDAQAWNNTYDLNVTPKRGLQGILELSLDVRPKVRKRALDAVHAVLLNPPVAPTAEHVAAVFVADFCDKQLAGILNDLSNLSNKQLKAQKTKEDINASVMRSLRLITSVVSTGQWPSSQIEPLCDVLLGVTKSSEQYLVSASFECFESMFKTMAETTISSGLAENKYLRVLDTIFALKPSNVDTLLTKSWIAVVIKGMSTYATHQPLKALRKIPGVFHIMCTYLASETPEVYQAASQCLISILSESVKDDLLLYTPSVDEKVFKNVDEIISQIAKTFIDFLSIRYSHCSREILKILVAAFNKFRYRSNPHFLKSLKIVDTWRVNEEQFMDLRNEIELVIGASISAMGPEMILAEAPLNLDNPSSERPGRAWLLPLIRDYTKNANLATFQNELAPYIKSFQSKFDKVPEESIQLRVFQTIVDQIWSTLPRFCELPMDLRESFTDEFASELSSLLYSEVELRTTICHALKVLAESNVSYAEESSSHNVLLLQRFPISEAQKNIEYLSTKSTNLLAVLFNVYTQTTPNARSYILETIDQYLKITSKEDLEKTFNNVCGLLKNSMNEESSGNVNKEKKKPQLTATLLDLIICMITYLPVSSYSALFSMFSLTVNSADALIQKRAYRIITKLSELKSGSTAVAQFISDIENVMVDSASSVQTSAKAARLTAIKTIVELLPLDHLDFIVRTVAEVILSTKDVNEKSRETAFDTLICMGRKMNEPNGIIKLFQIPGYDPTTPDQSSSISEFFKIISAGLIGESQHMVSSSITGYACLVFEFKNELDSGILMDIYDTIELYLTSNSREIVKSAIGFTKVCVLGLPEELMRPKVPELLLKLLRWSHEHTGHFKAKVKHIIERLIRRFGYDYIEANFPEEDRRLLTNIRKMRNRNKRKDEEVTTGVSDVAATKGSRFMSAFDEAVYGSDEENDNGSDQEENVAGGKMKNGAKQFIVESGDNPLDLLDSQTLAHISSTRPKKFNKNQNRARFNDDAFNFDSEGKLVVKGQPKPSTNVDDPLSAVTSGINAYLEAVKSGPVRGQRNKLKFRKNGKDSDEFGDDDDGEKDSRLMRGRVNQGNKIGKHNKKGPKFKSRKKL
binds | – | – | – | binds | – | Kri1 (protein, UniProt P42846 1-591) MPRKKSAAKRAREQAKKEAAVPATDTATIKTSETSATTVKPAIEASKSYVPSEDEEEDEEEEEEEDDYGELITDEVENGINQVLDAIKNNKTDKLLDPKVKFFEDPESAAAKLANREGKHKPIYLKDYHRMNILSGDALKEDDEEYEHATVDGKQSFVSQQREEKTQLLNEIKSAFSDEENEESSGDEDDGFLKKKEPSTKKEGKNLPDPTVNEENFLEEFVNQQAWIPKKGDKVISLDLNNNEEDDEEFEDAAEKFENAYNFRYEDPNAAEIISYARSQATLRRSDDSSRRRKREEKRKIKEQIKAEKETALQKKKTKKLNKLTDILEQLTKEYGAEINADMVKKITDTLLKNDFKEEEWDNVVAELFNEEFYQQEGKPTWNEDDEIMGDFYADADGDDQTEEGEVEKEQKEEDEEEGPKRKKSKKEEKLQKKKEKRKVNELVENALEQNKLALIEEVEKEEEERKSRSRTKEEQDLKFRYREVSPESFGLTAREIFAADDTDLNEFIGLKKFAPYRSKELRAKDKRKVMKARRLREWRKKTFKNENGLAPVEAEAGEKDEDTILIPVEKASKSKHKRGHSHKHKGHQKK
binds | – | – | binds | binds | binds | Utp22 (protein, UniProt P53254 1-1237) MATSVKRKASETSDQNIVKVQKKHSTQDSTTDNGSKENDHSSQAINERTVPEQENDESDTSPESNEVATNTAATRHNGKVTATESYDIHIARETAELFKSNIFKLQIDELLEQVKLKQKHVLKVEKFLHKLYDILQEIPDWEEKSLAEVDSFFKNKIVSVPFVDPKPIPQNTNYKFNYKKPDISLIGSFALKAGIYQPNGSSIDTLLTMPKELFEKKDFLNFRCLHKRSVYLAYLTHHLLILLKKDKLDSFLQLEYSYFDNDPLLPILRISCSKPTGDSLSDYNFYKTRFSINLLIGFPYKVFEPKKLLPNRNCIRIAQESKEQSLPATPLYNFSVLSSSTHENYLKYLYKTKKQTESFVEATVLGRLWLQQRGFSSNMSHSGSLGGFGTFEFTILMAALLNGGGINSNKILLHGFSSYQLFKGVIKYLATMDLCHDGHLQFHSNPENSSSSPASKYIDEGFQTPTLFDKSTKVNILTKMTVSSYQILKEYAGETLRMLNNVVQDQFSNIFLTNISRFDNLKYDLCYDVQLPLGKYNNLETSLAATFGSMERVKFITLENFLAHKITNVARYALGDRIKYIQIEMVGQKSDFPITKRKVYSNTGGNHFNFDFVRVKLIVNPSECDKLVTKGPAHSETMSTEAAVFKNFWGIKSSLRRFKDGSITHCCVWSTSSSEPIISSIVNFALQKHVSKKAQISNETIKKFHNFLPLPNLPSSAKTSVLNLSSFFNLKKSFDDLYKIIFQMKLPLSVKSILPVGSAFRYTSLCQPVPFAYSDPDFFQDVILEFETSPKWPDEITSLEKAKTAFLLKIQEELSANSSTYRSFFSRDESIPYNLEIVTLNILTPEGYGFKFRVLTERDEILYLRAIANARNELKPELEATFLKFTAKYLASVRHTRTLENISHSYQFYSPVVRLFKRWLDTHLLLGHITDELAELIAIKPFVDPAPYFIPGSLENGFLKVLKFISQWNWKDDPLILDLVKPEDDIRDTFETSIGAGSELDSKTMKKLSERLTLAQYKGIQMNFTNLRNSDPNGTHLQFFVASKNDPSGILYSSGIPLPIATRLTALAKVAVNLLQTHGLNQQTINLLFTPGLKDYDFVVDLRTPIGLKSSCGILSATEFKNITNDQAPSNFPENLNDLSEKMDPTYQLVKYLNLKYKNSLILSSRKYIGVNGGEKGDKNVITGLIKPLFKGAHKFRVNLDCNVKPVDDENVILNKEAIFHEIAAFGNDMVINFETD
binds | – | – | – | binds | – | Nsa1 (protein, UniProt P53136 1-463) MRLLVSCVDSGSIKEVLCNIGTDTSVQSALQPFHVAPHLAEGLKAYVDRMWVISEDEAILARNSGVVELVKISKHLKENEALQVDPKGESKNEKSLSDDLPKFDISEFEITSSVSDLFDDAKLESLSSKSVKRTKLVDGFVTLCPIKKDSSNNTFVAATKSGLLHIIKKGEDKKLIKLASLGLKAPVEFLQLYDLEDTDTDKYIFAYGGEENLIKLVEIDSSFQSLKQIWEAKNVKNDRLDMRVPVWPMALRFLEPSPGKTEKGKLNYQFAAITRWSHLTKYSTQHGRKPFAQIDLLPNREPLSQMEVFDAKGENVVSSLGNFQSETFNELNVITTDYKKNVFKFDGNGRMLGKVGRDDITGSSTYIHVHDGKYLLQGGLDRYVRIFDIKTNKMLVKVYVGSRINFIVMLDDVEIEMPLSPSAKAAKGKQKRKVTELEEDADELWNKLEGKVAASKASKKSKI
binds | – | – | – | binds | – | Utp5 (protein, UniProt Q04177 1-643) MDSPVLQSAYDPSGQYLCYVTVALDKQRVGVQPTQRATSSGVDTVWNENFLYLEDSKLKVTCLKWVNLASSDTVAIILGMNNGEIWLYSVLANEVTYKFTTGNSYEIKDIDLMGNQLWCIDSSDAFYQFDLLQFKLLQHFRINNCVQLNKLTIVPAGDSVAQLLVASHSISLIDIEEKKVVMTFPGHVSPVSTLQVITNEFFISGAEGDRFLNVYDIHSGMTKCVLVAESDIKELSHSGQADSIAVTTEDGSLEIFVDPLVSSSTKKRGNKSKKSSKKIQIVSKDGRKVPIYNAFINKDLLNVSWLQNATMPYFKNLQWREIPNEYTVEISLNWNNKNKSADRDLHGKDLASATNYVEGNARVTSGDNFKHVDDAIKSWERELTSLEQEQAKPPQANELLTETFGDKLESSTVARISGKKTNLKGSNLKTATTTGTVTVILSQALQSNDHSLLETVLNNRDERVIRDTIFRLKPALAVILLERLAERIARQTHRQGPLNVWVKWCLIIHGGYLVSIPNLMSTLSSLHSTLKRRSDLLPRLLALDARLDCTINKFKTLNYEAGDIHSSEPVVEEDEDDVEYNEELDDAGLIEDGEESYGSEEEEEGDSDNEEEQKHTSSKQDGRLETEQSDGEEEAGYSDVEME

Reference: paper PMC12848939
